From paper PMC9508819, “Rbp95 binds to 25S rRNA helix H95 and cooperates with the Npa1 complex during early pre-60S particle maturation”
Results are given in words; binding and its absence hold for the method and conditions named. Binding seen in cells or lysates may run through a third protein. Here binding means that the protein was enriched with, or labelled near, the bait; the list need not be complete. Values belong to the binder of their own block, whether it stands above or below them.

The chains behind the UniProt entries cited, without tags or fusion partners.
UniProt P14126: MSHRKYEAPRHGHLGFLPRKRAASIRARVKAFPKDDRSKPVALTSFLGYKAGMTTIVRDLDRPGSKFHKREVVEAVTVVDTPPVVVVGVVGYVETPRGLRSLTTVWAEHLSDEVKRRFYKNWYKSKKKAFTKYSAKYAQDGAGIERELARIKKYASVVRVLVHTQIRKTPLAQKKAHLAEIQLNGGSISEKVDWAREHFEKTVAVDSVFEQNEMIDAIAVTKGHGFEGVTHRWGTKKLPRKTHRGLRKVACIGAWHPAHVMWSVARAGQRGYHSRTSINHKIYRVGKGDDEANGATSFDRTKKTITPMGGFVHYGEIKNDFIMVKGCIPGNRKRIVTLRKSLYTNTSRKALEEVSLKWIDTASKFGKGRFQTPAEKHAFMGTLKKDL
UniProt P34241: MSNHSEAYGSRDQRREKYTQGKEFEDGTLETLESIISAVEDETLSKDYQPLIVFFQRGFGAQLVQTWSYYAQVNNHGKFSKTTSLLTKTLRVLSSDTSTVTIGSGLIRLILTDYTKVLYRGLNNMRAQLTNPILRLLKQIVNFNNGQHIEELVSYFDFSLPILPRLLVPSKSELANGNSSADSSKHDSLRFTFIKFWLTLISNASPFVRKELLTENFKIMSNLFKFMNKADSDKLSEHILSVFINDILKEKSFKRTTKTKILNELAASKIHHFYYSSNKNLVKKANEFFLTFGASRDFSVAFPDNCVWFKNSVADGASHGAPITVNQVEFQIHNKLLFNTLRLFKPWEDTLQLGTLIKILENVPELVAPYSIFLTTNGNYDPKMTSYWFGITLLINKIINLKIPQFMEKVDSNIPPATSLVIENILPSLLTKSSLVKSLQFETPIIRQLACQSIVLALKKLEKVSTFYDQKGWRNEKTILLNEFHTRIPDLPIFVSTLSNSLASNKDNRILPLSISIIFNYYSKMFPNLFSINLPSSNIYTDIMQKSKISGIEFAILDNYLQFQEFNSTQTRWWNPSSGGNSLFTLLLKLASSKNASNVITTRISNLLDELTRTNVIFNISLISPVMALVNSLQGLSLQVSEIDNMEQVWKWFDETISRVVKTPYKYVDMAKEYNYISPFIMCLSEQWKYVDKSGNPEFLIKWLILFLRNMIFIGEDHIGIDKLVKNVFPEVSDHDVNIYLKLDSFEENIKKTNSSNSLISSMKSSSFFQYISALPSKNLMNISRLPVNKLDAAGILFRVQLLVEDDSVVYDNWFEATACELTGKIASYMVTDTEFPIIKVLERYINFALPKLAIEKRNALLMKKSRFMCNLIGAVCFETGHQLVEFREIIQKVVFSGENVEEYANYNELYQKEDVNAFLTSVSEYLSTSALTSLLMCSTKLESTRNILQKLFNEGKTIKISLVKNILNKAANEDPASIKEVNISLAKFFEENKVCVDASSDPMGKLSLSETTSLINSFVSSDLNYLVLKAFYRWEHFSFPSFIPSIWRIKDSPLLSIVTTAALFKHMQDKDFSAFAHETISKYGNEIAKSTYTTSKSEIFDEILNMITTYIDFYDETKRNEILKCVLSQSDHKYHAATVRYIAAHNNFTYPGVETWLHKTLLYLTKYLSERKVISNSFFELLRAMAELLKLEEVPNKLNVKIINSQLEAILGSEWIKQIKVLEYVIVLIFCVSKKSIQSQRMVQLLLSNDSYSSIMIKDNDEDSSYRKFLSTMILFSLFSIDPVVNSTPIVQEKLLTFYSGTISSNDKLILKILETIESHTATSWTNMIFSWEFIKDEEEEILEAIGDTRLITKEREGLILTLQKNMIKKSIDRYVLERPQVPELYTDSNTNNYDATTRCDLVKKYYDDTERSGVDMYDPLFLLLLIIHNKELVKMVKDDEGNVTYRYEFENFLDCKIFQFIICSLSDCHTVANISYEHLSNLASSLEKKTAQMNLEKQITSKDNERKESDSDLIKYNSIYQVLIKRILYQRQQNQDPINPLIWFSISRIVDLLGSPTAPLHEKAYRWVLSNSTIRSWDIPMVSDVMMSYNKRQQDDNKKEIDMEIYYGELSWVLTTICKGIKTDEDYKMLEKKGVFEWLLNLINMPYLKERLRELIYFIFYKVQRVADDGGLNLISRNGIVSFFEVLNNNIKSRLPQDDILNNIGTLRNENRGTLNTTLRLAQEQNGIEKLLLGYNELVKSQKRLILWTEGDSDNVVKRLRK

Assays:
Noc2-TAP (S. cerevisiae) = target: T1, Noc2-TAP (S. cerevisiae) (UniProt P39744); assay: affinity purification with mass spectrometry; tandem-affinity purification from yeast lysate, elution from Calmodulin Sepharose with 0.8% ammonium hydroxide; label-free semi-quantitative LC-MS/MS (LFQ, MaxQuant); for Figure 8A, B from wild-type and Δrbp95 strains
T1 sequence: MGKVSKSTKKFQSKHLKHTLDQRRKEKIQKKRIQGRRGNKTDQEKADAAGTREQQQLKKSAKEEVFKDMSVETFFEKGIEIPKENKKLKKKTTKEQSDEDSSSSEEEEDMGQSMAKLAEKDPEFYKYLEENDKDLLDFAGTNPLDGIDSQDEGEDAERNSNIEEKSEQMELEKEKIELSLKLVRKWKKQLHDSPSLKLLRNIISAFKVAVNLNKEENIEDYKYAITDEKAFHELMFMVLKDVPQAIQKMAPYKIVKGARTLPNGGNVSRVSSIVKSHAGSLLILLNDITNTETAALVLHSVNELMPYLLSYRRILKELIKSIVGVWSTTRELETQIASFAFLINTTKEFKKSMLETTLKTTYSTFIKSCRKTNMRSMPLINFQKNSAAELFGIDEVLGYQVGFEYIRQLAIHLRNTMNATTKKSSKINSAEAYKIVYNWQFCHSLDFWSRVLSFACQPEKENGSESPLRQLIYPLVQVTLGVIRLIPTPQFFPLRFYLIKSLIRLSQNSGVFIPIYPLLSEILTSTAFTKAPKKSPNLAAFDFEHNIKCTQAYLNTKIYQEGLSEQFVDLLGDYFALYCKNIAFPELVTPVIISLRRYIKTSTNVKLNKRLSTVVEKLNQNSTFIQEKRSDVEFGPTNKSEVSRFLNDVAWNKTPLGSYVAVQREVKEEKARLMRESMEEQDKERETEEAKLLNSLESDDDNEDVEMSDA

[1] = target: Rpl3-TurboID (S. cerevisiae) (UniProt P14126); assay: proximity labelling; TurboID: C-terminally TurboID-tagged bait from the CUP1 promoter in yeast, 500 uM copper sulfate and biotin for 1 h; biotinylated proteins purified on streptavidin agarose, LC-MS/MS; enrichment against NLS-GFP-TurboID control
[2] = target: T2, Rbp95-TurboID (S. cerevisiae) (UniProt P25617); assay: as above
T2 sequence: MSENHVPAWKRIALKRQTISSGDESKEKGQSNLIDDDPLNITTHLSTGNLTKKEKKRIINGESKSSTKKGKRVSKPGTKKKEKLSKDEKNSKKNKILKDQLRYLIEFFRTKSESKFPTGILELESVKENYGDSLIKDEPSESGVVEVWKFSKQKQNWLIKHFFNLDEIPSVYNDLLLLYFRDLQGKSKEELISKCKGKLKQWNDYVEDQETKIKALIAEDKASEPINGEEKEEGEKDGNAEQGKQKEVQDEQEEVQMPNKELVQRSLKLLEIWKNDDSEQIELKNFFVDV

[3] = target: Npa1-TurboID (S. cerevisiae) (UniProt P34241); assay: as above
[4] = target: T3, Rbp95-TAP (S. cerevisiae) (UniProt P25617); assay: affinity purification with mass spectrometry; tandem-affinity purification from yeast lysate, elution from Calmodulin Sepharose with 0.8% ammonium hydroxide; label-free semi-quantitative LC-MS/MS (LFQ, MaxQuant); for Figure 8A, B from wild-type and Δrbp95 strains
T3 sequence: T2 sequence

binding (Noc2-TAP (S. cerevisiae)): binds | binding [1]: binds | binding [2]: binds
B1: Ssf1 (protein, UniProt P38789 1-453)
chain: MAKRRQKKRTHAQLTPEQEQGIPKSMVIRVGQTSLANHSLNQLVKDFRQIMQPHTAIKLKERKSNKLKDFVVMCGPLGVTHLFMFTQSEKTGNVSLKIARTPQGPTVTFQVLDYSLGRDIKKFLKRPKSLNNDDVLNPPLLVLNGFSTSKRSGEDDQDVNVEKVIVSMFQNIFPPLNPARTSLNSIKRVFMINKDRETGEISMRHYFIDIREVEISRNLKRLYKAKNNLSKTVPNLHRKEDISSLILDHDLGAYTSESEIEDDAIVRVVDNQDVKAKHSQSLKSQRTPVEKKDNKEREKETEEEDVEMEEPKPSENLQPTPRKKAIKLTELGPRLTLKLVKIEEGICSGKVLHHEFVQKSSEEIKALEKRHAAKMRLKEQRKKEQEENIAKKKAVKDAKKQRKLERRKARAAEGGEGQGKDDAMSDDESSSSDSEHYGSVPEDLDSDLFSEVE

binding [1]: binds | binding [3]: binds
B2: Rbp95 (Ycr016w) (protein, UniProt P25617 1-290)
chain: T2 sequence

binding [4]: binds | binding [2]: binds | binding [3]: binds
B3: Nop8 (protein, UniProt Q08287 1-484)
chain: MDSVIQKRIFVGNIFHNADDCYSELLDRFGKFGDCQDFQFEKHNHFAFIDIRFNDEADFNKLRKSFNNVKFKGNILKVDEAKPNWESTWAVQHAKDLKEDIILNAKMKKKNWQHYKKMENVAKSWKDHKEVIAGRMREAPRKRSQLRNITFRINVNGSLKVYKCYKTKLWGYERNKELNDLVYKFTNNFWKNGYNHIVDRLDYSRAVKTVRFKNGLKQLTVSKDENVCSGEMDSDENMSEEEKEKNNVILNDLLKDFDFDKPMTLNDSDEELLTEQRKGEEEEEEEEEKEVNAPEYENVNKTKDQSTLPQEKPEERKEQDEGDGQEDNEFIPTFTKEIGQGTISNTETLRNLFNPNEAEPVSQFKLIEDSDNDIDHAKDVDVNQLEEEVSKSSDTLGLTSAPVPHVSRDKDNKNFLFFPHLQSPFLVGQTQLSKVRAPGRETMLSNWDEEFWANRGNWTRDMRRKMKDALKHRKRKQSKSGLLL
